Literature values as cited in article PMC10793096 (Acta Pharmaceutica Sinica. B, 2023).

Test system: MCF-7 (human breast adenocarcinoma) cell line
Details: read-out: IC50 MCF-7; taken from the literature; cited from earlier work

In the case of `CC(=O)O[C@H]1C(=O)[C@@]2(C)[C@H]([C@H](OC(=O)c3ccccc3)[C@]3(O)C[C@H](OC(=O)[C@H](O)[C@@H](NC(=O)c4ccccc4)c4ccccc4)C(C)=C1C3(C)C)[C@]1(OC(C)=O)CO[C@@H]1C[C@@H]2O` [Paclitaxel], the IC50 is given as 2.78 nM.
